We go through 8 targets from the supplement of paper PMC10849652.

The chains behind the UniProt entries cited, without tags or fusion partners. Where a name states a change or a piece, a line headed by the entry shows the natural chain unless it says otherwise.
UniProt A6NIH7: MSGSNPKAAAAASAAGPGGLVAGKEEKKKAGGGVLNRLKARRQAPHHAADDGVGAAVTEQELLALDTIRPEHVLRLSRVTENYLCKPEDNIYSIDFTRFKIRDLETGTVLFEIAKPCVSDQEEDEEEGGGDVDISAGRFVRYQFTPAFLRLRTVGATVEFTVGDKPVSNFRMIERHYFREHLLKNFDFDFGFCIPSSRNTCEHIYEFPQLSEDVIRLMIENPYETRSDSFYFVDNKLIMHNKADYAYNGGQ
UniProt Q96T88: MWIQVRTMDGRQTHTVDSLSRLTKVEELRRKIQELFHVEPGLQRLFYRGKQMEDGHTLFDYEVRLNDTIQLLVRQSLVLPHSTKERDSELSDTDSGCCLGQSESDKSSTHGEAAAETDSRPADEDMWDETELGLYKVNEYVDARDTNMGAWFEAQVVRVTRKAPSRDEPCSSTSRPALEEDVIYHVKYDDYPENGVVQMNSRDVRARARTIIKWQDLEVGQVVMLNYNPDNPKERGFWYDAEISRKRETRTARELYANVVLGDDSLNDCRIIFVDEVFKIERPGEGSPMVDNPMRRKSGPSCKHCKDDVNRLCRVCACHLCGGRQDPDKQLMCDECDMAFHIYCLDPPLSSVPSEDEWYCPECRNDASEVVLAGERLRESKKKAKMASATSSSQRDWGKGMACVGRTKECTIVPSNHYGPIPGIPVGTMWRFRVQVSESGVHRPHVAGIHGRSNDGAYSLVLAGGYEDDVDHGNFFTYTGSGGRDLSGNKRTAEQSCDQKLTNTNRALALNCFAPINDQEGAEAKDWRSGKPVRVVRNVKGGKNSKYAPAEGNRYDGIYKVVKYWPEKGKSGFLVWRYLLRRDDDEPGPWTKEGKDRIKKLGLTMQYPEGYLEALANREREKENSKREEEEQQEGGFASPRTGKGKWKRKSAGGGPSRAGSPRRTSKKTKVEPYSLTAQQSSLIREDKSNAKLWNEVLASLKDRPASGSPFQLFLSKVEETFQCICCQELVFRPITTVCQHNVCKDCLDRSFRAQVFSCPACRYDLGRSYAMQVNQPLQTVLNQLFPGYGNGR
UniProt Q92995: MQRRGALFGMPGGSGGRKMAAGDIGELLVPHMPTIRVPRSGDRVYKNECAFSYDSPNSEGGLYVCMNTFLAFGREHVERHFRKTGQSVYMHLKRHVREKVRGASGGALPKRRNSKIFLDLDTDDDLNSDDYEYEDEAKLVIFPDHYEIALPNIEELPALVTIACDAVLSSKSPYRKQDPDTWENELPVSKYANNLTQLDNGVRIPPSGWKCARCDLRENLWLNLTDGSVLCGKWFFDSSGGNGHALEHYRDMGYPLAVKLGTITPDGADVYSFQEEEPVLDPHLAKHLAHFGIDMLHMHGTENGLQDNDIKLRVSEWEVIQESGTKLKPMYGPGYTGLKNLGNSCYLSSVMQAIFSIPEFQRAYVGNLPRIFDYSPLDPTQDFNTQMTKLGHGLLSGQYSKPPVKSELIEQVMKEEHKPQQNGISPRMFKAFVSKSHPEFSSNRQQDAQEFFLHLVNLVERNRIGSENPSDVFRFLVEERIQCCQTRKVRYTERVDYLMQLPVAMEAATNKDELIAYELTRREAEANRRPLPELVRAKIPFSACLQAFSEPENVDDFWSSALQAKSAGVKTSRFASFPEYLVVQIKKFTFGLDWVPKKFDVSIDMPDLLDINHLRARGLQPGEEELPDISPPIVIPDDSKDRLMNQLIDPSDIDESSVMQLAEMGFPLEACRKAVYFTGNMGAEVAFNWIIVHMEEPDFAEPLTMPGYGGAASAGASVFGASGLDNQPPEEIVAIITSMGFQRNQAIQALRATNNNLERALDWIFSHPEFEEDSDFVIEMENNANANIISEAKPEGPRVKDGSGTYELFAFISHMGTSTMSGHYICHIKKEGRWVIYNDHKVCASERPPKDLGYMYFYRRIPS
UniProt Q9Y5Z9: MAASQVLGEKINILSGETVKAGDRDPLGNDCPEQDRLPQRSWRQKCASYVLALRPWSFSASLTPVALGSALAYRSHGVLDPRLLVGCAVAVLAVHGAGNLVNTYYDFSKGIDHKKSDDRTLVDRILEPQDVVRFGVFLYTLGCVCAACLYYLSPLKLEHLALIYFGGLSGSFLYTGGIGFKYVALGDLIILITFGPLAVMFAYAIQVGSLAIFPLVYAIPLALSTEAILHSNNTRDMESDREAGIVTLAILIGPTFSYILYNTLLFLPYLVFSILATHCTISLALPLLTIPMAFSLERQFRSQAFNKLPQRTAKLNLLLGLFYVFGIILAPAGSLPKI
UniProt Q15836, whole entry, looked up: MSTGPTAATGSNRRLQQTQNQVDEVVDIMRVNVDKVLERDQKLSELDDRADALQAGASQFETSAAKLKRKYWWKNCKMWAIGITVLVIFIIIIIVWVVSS
UniProt Q9BTM9: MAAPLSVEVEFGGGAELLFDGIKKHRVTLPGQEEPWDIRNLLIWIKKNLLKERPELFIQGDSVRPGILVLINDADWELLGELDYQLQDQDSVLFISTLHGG
UniProt Q16831: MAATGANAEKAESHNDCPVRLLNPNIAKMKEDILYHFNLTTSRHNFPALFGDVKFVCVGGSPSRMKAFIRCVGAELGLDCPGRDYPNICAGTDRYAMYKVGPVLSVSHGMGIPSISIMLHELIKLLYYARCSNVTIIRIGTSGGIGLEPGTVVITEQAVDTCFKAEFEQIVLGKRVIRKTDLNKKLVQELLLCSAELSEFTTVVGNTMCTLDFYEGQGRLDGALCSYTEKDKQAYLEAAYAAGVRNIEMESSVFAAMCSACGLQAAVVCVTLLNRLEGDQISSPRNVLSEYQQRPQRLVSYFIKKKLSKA
UniProt Q9BZM5, whole entry, looked up: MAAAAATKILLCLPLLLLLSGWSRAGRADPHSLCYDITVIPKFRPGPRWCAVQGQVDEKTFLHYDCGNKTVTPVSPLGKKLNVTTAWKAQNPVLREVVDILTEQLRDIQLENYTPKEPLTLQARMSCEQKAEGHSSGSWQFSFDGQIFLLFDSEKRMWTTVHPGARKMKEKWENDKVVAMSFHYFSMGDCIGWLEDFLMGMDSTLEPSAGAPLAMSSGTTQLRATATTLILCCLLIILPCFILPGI

What all share (assay): log2 fold change, soluble protein after heating vs DMSO (PISA); higher = thermal stabilisation; K562 cells, 10 uM, 30 min; active = over 0.2 and 3.5 SD of the protein, either way, in both replicates (recomputed)
Compound in assay [1]: C#Cc1cccc(Nc2ncnc3cc(OCCOC)c(OCCOC)cc23)c1 [erlotinib]
In outline: (§1)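 Soluble protein was quantified by TMTpro 16plex LC-MS/MS after channel sums were equalised. It was obtained as the supernatant after 21,000xg for 90 min from pooled aliquots of K562 cells (2×10^6 cells/mL, 10 μM compound, 30 min) heated for 3 min across 48°C-58°C and extracted in PBS with 0.5% NP-40 at 4°C. Thermal stability values are relative to control samples and come from duplicates. They are given as log2 fold changes.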

Compound in assay [2]: C/C(=N\NC(=O)C1=CC(=CC=C1)S(=O)(=O)N2CCOCC2)/C3=C(C=CC(=C3)Cl)O
A digest of the protocol:
as §1

Compound in assay [3]: C1=CC(=CC=C1C2=NC3=C(N2)C=C(C=C3)C(=O)N)OC4=CC=C(C=C4)Cl
A digest of the protocol:
as §1

Compound in assay [4]: C1=CC2=C(C=CC(=C2)/C=C\3/C(=O)NC(=NCC4=CC=CS4)S3)N=C1
In outline: as §1

Compound in assay [5]: C1=CC2=NC=CN=C2C=C1/C=C/3\C(=O)NC(=O)S3
A digest of the protocol:
as §1

Compound in assay [6]: C1=CC=C(C=C1)C2=NC(=C(N2)C3=CC=NC=C3)C4=CC(=C(C=C4)Cl)O
A digest of the protocol:
as §1

Compound in assay [7]: C1=CC=C2C(=C1)C3=NNC4=CC=CC(=C43)C2=O
In outline: as §1

Compound in assay [8]: C1CCN(C1)C(=O)NC2=CC=CC(=C2)NC3=NC=C(C(=N3)NCCC4=CN=CN4)Br
In outline: as §1

Compound in assay [9]: C1CN(CCC1(CC2=CC=C(C=C2)Cl)N)C3=NC=NC4=C3C=CN4
A digest of the protocol:
as §1

Compound in assay [10]: C1=CC(=C(C=C1Cl)C2=NC3=NC=CN=C3C(=N2)NC4=CC=NC=C4)F
In outline: as §1

The other results are listed elsewhere or left out.

As for UNC119B (UniProt A6NIH7), the log2 fold change in assay [1] is inactive: 0; in [2] it was inactive: 0.124; in assay [3] it was inactive: 0.316; in assay [4], inactive: 0.031; in assay [5], inactive: 0.001; in [6], active: 0.472. Moreover, the log2 fold change is inactive: 0.005 in assay [7], inactive: -0.012 in assay [8] and active: 0.454 in [9].
Take UHRF1 isoform 2 (UniProt Q96T88): the log2 fold change was inactive: 0.105 in [1], inactive: 0.004 in [3], inactive: -0.034 in assay [8] and inactive: 0.096 in assay [9].
Consider USP13 (UniProt Q92995), for which the log2 fold change in assay [1] is inactive: 0.04; in assay [2] it was inactive: 0.13; in assay [3], inactive: -0.013; in assay [4] it was inactive: -0.166; in assay [5] it was inactive: -0.037; in assay [6], inactive: 0.158. Moreover, the log2 fold change in assay [7] was inactive: 0.062; in [8], inactive: 0.029; in assay [9], inactive: 0.074.
Regarding UBIAD1 (UniProt Q9Y5Z9), the log2 fold change was inactive: 0.101 in assay [1]; inactive: -0.052 in [2]; inactive: 0.04 in [3]; inactive: 0.194 in [4]; inactive: -0.036 in [5]; inactive: 0.259 in assay [6]. Besides, the values for the log2 fold change in assay [7], in [8] and in assay [9] were active: 0.297, inactive: 0 and inactive: 0.094, respectively.
Take VAMP3 (UniProt Q15836): the log2 fold change in [1] was inactive: 0; in assay [10], inactive: -0.02; in [3], inactive: -0.034; in assay [5] it was inactive: -0.005; in assay [8], inactive: -0.063; in assay [9], inactive: -0.234.
Consider URM1 isoform 2 (UniProt Q9BTM9), for which the log2 fold change in assay [1] is inactive: -0.005; in assay [2], inactive: -0.082; in assay [3], inactive: 0.068; in [4], inactive: 0.108; in assay [5], inactive: 0.131; in assay [6], inactive: 0.057. The log2 fold change was inactive: 0.212 in assay [7], inactive: -0.072 in assay [8] and inactive: 0.136 in assay [9].
Consider UPP1 (UniProt Q16831), for which the figures for the log2 fold change in assay [8] and in assay [9] were inactive: -0.239 and inactive: -0.089, respectively.
For the target ULBP2 (UniProt Q9BZM5), the log2 fold change in assay [10] was inactive: -0.301; in [6], inactive: 0.017; in [8] it was inactive: 0.095; in [9], inactive: 0.087.
